Reference: patent US7259177B2, “Cycloalkylmethoxy-substituted acetic acid derivatives, processes for their preparation and their use as pharmaceuticals” (Sanofi-Aventis Deutschland GmbH, priority 2003, dated 2007)
Some of these results come from one statement about several compounds together.

Molecular target: T1, human PPARα (Homo sapiens, UniProt Q07869)
T1 construct: amino acids S167-Y468; expressed in transfected cells; host or cells: HEK (human embryo kidney) cells, stably transfected with pcDNA3 carrying the fusion construct
T1 sequence (Q07869 167-468): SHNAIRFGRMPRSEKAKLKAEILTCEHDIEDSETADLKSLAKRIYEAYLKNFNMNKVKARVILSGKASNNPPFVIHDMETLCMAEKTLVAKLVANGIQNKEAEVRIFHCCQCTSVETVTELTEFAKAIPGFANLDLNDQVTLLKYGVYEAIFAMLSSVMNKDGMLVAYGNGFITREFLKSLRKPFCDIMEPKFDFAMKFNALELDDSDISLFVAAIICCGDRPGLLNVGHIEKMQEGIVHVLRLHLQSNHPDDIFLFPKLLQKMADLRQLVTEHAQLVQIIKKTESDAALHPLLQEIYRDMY
Assay: Cellular PPARalpha assay (stably transfected HEK PPARalpha reporter cell line, luciferase)
Format: cell-based
Conditions: range over the examples; each bound printed with its own unit (nm, μM)

Molecule | EC50
Cc1oc(-c2ccc(C(C)C)cc2)nc1CO[C@@H]1CCC[C@H](COC(C)(C)C(=O)O)C1 (racemic) [Example 20, 2-methyl-2-[(1R,3S)-cis-3-(5-methyl-2-(4-isopropylphenyl)-oxazol-4-ylmethoxy)cyclohexylmethoxy]propionic acid] | ≥ 0.07 nM
Cc1oc(-c2cccc(C(F)(F)F)c2)nc1CO[C@@H]1CCC[C@H](COC(C)(C)C(=O)O)C1 (racemic) [Example 12, 2-{(1S,3R)-3-[2-(cis-3-trifluoromethylphenyl)-5-methyl-oxazol-4-ylmethoxy]cyclohexylmethoxy}-2-methylpropionic acid] | ≥ 0.07 nM
Cc1cccc(-c2nc(CO[C@@H]3CCC[C@H](COC(C)C(=O)O)C3)c(C)o2)c1 (relative stereo) [Example 6, 2-[cis-3-(5-methyl-2-m-tolyloxazol-4-ylmethoxy)cyclohexyl-methoxy]propionic acid] | ≥ 0.07 nM
2-[cis-3-(5-ethyl-2-(3-trifluoromethyl)oxazol-4-ylmethoxymethyl)cyclohexylmethoxy]-2-methylpropionic acid [Example 66] | ≥ 0.07 nM
Cc1ccc(-c2nc(CO[C@@H]3CCC[C@H](CS(=O)(=O)C(C)(C)C(=O)O)C3)c(C)o2)cc1 (racemic) [Example 39, 2-[cis-3-(5-methyl-2-p-tolyloxazol-4-ylmethoxy)cyclohexylmethylsulfonyl]-2-methylbutyric acid] | ≥ 0.07 nM
Cc1ccc(-c2nc(COC3CCCC(CN([C@H](C(=O)O)C(C)C)S(=O)(=O)CS(C)(=O)=O)C3)c(C)o2)cc1 (mixture of isomers) [Example 46, (S)-2-{methylsulfonylmethylsulfonyl-[cis-3-(5-methyl-2-p-tolyloxazol-4-ylmethoxy)cyclohexylmethyl]amino}-3-methylbutyric acid] | ≥ 0.07 nM
CCC(CC[C@H]1CCC[C@@H](OCc2nc(-c3cccc(OC)c3)oc2C)C1)C(=O)O (relative stereo) [Example 69, 2-Ethyl-4-{cis-3-[2-(3-methoxyphenyl)-5-methyloxazol-4-ylmethoxy]cyclo-hexyl}butyric acid] | ≥ 0.07 nM
CCCCCC(SCC1CCCC(OCc2nc(-c3ccc(C)cc3)oc2C)C1)C(=O)O (stereo not drawn) [Example 25, 2-[cis-3-(5-methyl-2-p-tolyloxazol-4-ylmethoxy)cyclohexylmethylsulfanyl]-heptanoic acid] | ≥ 0.07 nM
CCCC(OC[C@H]1CCC[C@@H](OCc2nc(-c3ccc(C)cc3)oc2C)C1)C(=O)O (relative stereo) [Example 1, 2-[cis-3-(5-Methyl-2-p-tolyloxazol-4-ylmethoxy)cyclohexylmethoxy]-pentanoic acid] | ≥ 0.07 nM
Cc1oc(-c2ccc3ccccc3c2)nc1COC[C@@H]1CCC[C@H](COC(C)(C)C(=O)O)C1 (racemic) [Example 59, 2-[cis-3-(5-methyl-2-naphthyloxazol-4-ylmethoxy-methyl)cyclohexylmethoxy]-2-methylpropionic acid] | ≥ 0.07 nM
